{"source": "the supplement of paper PMC12067093", "about": "“Discovery and optimisation of a covalent ligand for TRIM25 and its application to targeted protein ubiquitination” (Chemical Science, 2025)", "compound": "CC1Cc2ccccc2N1C(=O)C1CCCN(C1)C(=O)CCl (mixture of isomers) [TRIM25 ligand 11 (diastereomer mixture)]", "assay": "probe-labelled cysteine peptide fold change vs DMSO (competition) (log2 fold change); higher = less target engagement (more negative = stronger competition)", "conditions": "THP-1, incubation time: 4 h", "note": "This is one part of the list.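 Note: competitive chemoproteomic profiling in live THP-1 cells with an iodoacetamide desthiobiotin (IA-DTB) probe, comparing probe-labelled peptide intensities in compound-treated cells against DMSO-treated controls.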"}
{"target": "GLG1_Q92896_155_HTWSNNLAVLECLQDVREPENEISSDCNHLLWNYK (UniProt Q92896)", "values": [{"measurement": "probe-labelled cysteine peptide fold change", "setting": "10 µM", "value": -0.0518}, {"measurement": "probe-labelled cysteine peptide fold change", "setting": "50 µM", "value": 0.0279}]}
{"target": "GNB1L_Q9BYB4_206_IACHEEPVMDLDFDSQK (UniProt Q9BYB4)", "values": [{"measurement": "probe-labelled cysteine peptide fold change", "setting": "10 µM", "value": -0.114}, {"measurement": "probe-labelled cysteine peptide fold change", "setting": "50 µM", "value": -0.153}]}
{"target": "GNL3_Q9BVP2_131_LYCQELKK (UniProt Q9BVP2)", "values": [{"measurement": "probe-labelled cysteine peptide fold change", "setting": "10 µM", "value": -0.126}, {"measurement": "probe-labelled cysteine peptide fold change", "setting": "50 µM", "value": -0.0909}]}
{"target": "GOLGA4_Q13439_1253_ISHCQHR (UniProt Q13439)", "values": [{"measurement": "probe-labelled cysteine peptide fold change", "setting": "10 µM", "value": 0.0124}, {"measurement": "probe-labelled cysteine peptide fold change", "setting": "50 µM", "value": -0.0149}]}
{"target": "GLOD4_Q9HC38_221_IAFSCPQK (UniProt Q9HC38)", "values": [{"measurement": "probe-labelled cysteine peptide fold change", "setting": "10 µM", "value": -0.027}, {"measurement": "probe-labelled cysteine peptide fold change", "setting": "50 µM", "value": 0.292}]}
{"target": "GLG1_Q92896_1092_QMSCLMEALEDK (UniProt Q92896)", "values": [{"measurement": "probe-labelled cysteine peptide fold change", "setting": "10 µM", "value": -0.00141}, {"measurement": "probe-labelled cysteine peptide fold change", "setting": "50 µM", "value": 0.102}]}
{"target": "GM2A_P17900_138_TYGLPCHCPFK (UniProt P17900)", "values": [{"measurement": "probe-labelled cysteine peptide fold change", "setting": "10 µM", "value": 0.00974}, {"measurement": "probe-labelled cysteine peptide fold change", "setting": "50 µM", "value": 0.523}]}
{"target": "GPA33_Q99795_43_SVTLPCTYHTSTSSR (UniProt Q99795)", "values": [{"measurement": "probe-labelled cysteine peptide fold change", "setting": "10 µM", "value": 0.259}, {"measurement": "probe-labelled cysteine peptide fold change", "setting": "50 µM", "value": 0.0836}]}
{"target": "GLCCI1_Q86VQ1_207_ATQTPSCWAEEGAEKR (UniProt Q86VQ1)", "values": [{"measurement": "probe-labelled cysteine peptide fold change", "setting": "10 µM", "value": -0.146}, {"measurement": "probe-labelled cysteine peptide fold change", "setting": "50 µM", "value": -0.352}]}
{"target": "GNAI2_P04899_66_IIHEDGYSEEECR (UniProt P04899)", "values": [{"measurement": "probe-labelled cysteine peptide fold change", "setting": "10 µM", "value": 0.123}, {"measurement": "probe-labelled cysteine peptide fold change", "setting": "50 µM", "value": -0.00252}]}
{"target": "GMPPA_Q96IJ6_335_ESIVLHGATLQEHTCVLHSIVGWGSTVGR (UniProt Q96IJ6)", "values": [{"measurement": "probe-labelled cysteine peptide fold change", "setting": "10 µM", "value": -0.0429}, {"measurement": "probe-labelled cysteine peptide fold change", "setting": "50 µM", "value": -0.0368}]}
{"target": "GNPDA1_P46926_48_YFTLGLPTGSTPLGCYK (UniProt P46926)", "values": [{"measurement": "probe-labelled cysteine peptide fold change", "setting": "10 µM", "value": -0.0393}, {"measurement": "probe-labelled cysteine peptide fold change", "setting": "50 µM", "value": -0.0075}]}
{"target": "GOLGB1_Q14789_1462_QLQVELCEMK (UniProt Q14789)", "values": [{"measurement": "probe-labelled cysteine peptide fold change", "setting": "10 µM", "value": -0.188}, {"measurement": "probe-labelled cysteine peptide fold change", "setting": "50 µM", "value": -0.263}]}
{"target": "GNB2_P62879_149_ELPGHTGYLSCCR (UniProt P62879)", "values": [{"measurement": "probe-labelled cysteine peptide fold change", "setting": "10 µM", "value": 0.00625}, {"measurement": "probe-labelled cysteine peptide fold change", "setting": "50 µM", "value": -0.0766}]}
{"target": "GLMN_Q92990_406_CLLNTSNHSGVEAFIIQNIK (UniProt Q92990)", "values": [{"measurement": "probe-labelled cysteine peptide fold change", "setting": "10 µM", "value": 0.0882}, {"measurement": "probe-labelled cysteine peptide fold change", "setting": "50 µM", "value": -0.082}]}
{"target": "GOT2_P00505_212_IPEQSVLLLHACAHNPTGVDPRPEQWK (UniProt P00505)", "values": [{"measurement": "probe-labelled cysteine peptide fold change", "setting": "10 µM", "value": 0.207}, {"measurement": "probe-labelled cysteine peptide fold change", "setting": "50 µM", "value": 0.182}]}
{"target": "GLOD4_Q9HC38_269_ATVQVVILADPDGHEICFVGDEAFR (UniProt Q9HC38)", "values": [{"measurement": "probe-labelled cysteine peptide fold change", "setting": "10 µM", "value": 0.00217}, {"measurement": "probe-labelled cysteine peptide fold change", "setting": "50 µM", "value": 0.119}]}
{"target": "GOLGA2_Q08379_794_EPEAAAPAPGTGGDSVCGETHR (UniProt Q08379)", "values": [{"measurement": "probe-labelled cysteine peptide fold change", "setting": "10 µM", "value": 0.00942}, {"measurement": "probe-labelled cysteine peptide fold change", "setting": "50 µM", "value": -0.216}]}
{"target": "GPAA1_O43292_266_GGLLCTLQGK (UniProt O43292)", "values": [{"measurement": "probe-labelled cysteine peptide fold change", "setting": "10 µM", "value": 0.115}, {"measurement": "probe-labelled cysteine peptide fold change", "setting": "50 µM", "value": 0.205}]}
{"target": "GNPNAT1_Q96EK6_150_KLNCYK (UniProt Q96EK6)", "values": [{"measurement": "probe-labelled cysteine peptide fold change", "setting": "10 µM", "value": -0.13}, {"measurement": "probe-labelled cysteine peptide fold change", "setting": "50 µM", "value": 0.167}]}
{"target": "GLG1_Q92896_140_HTWSNNLAVLECLQDVR (UniProt Q92896)", "values": [{"measurement": "probe-labelled cysteine peptide fold change", "setting": "10 µM", "value": -0.199}, {"measurement": "probe-labelled cysteine peptide fold change", "setting": "50 µM", "value": -0.0191}]}
{"target": "GNL1_P36915_365_YKDGVVTIGCVGFPNVGK (UniProt P36915)", "values": [{"measurement": "probe-labelled cysteine peptide fold change", "setting": "10 µM", "value": -0.304}, {"measurement": "probe-labelled cysteine peptide fold change", "setting": "50 µM", "value": -0.317}]}
{"target": "GLE1_Q53GS7_287_GNQLCSLISGIIR (UniProt Q53GS7)", "values": [{"measurement": "probe-labelled cysteine peptide fold change", "setting": "10 µM", "value": -0.111}, {"measurement": "probe-labelled cysteine peptide fold change", "setting": "50 µM", "value": -0.0059}]}
{"target": "GK_P32189_289+293_NTYGTGCFLLCNTGHK (UniProt P32189)", "values": [{"measurement": "probe-labelled cysteine peptide fold change", "setting": "10 µM", "value": -0.0041}, {"measurement": "probe-labelled cysteine peptide fold change", "setting": "50 µM", "value": 0.249}]}
{"target": "GOLPH3_Q9H4A6_84_DREGYTSFWNDCISSGLR (UniProt Q9H4A6)", "values": [{"measurement": "probe-labelled cysteine peptide fold change", "setting": "10 µM", "value": 0.0511}, {"measurement": "probe-labelled cysteine peptide fold change", "setting": "50 µM", "value": 0.0748}]}
{"target": "GMIP_Q9P107_274_AQEAEALYQACVR (UniProt Q9P107)", "values": [{"measurement": "probe-labelled cysteine peptide fold change", "setting": "10 µM", "value": 0.071}, {"measurement": "probe-labelled cysteine peptide fold change", "setting": "50 µM", "value": 0.0497}]}
{"target": "GLG1_Q92896_528_SGDPMILSCLMEHLYTEK (UniProt Q92896)", "values": [{"measurement": "probe-labelled cysteine peptide fold change", "setting": "10 µM", "value": -0.0124}, {"measurement": "probe-labelled cysteine peptide fold change", "setting": "50 µM", "value": -0.0209}]}
{"target": "GNAI2_P04899_287_ITHSPLTICFPEYTGANK (UniProt P04899)", "values": [{"measurement": "probe-labelled cysteine peptide fold change", "setting": "10 µM", "value": 0.0199}, {"measurement": "probe-labelled cysteine peptide fold change", "setting": "50 µM", "value": -0.121}]}
{"target": "GLG1_Q92896_639_CLIDLGK (UniProt Q92896)", "values": [{"measurement": "probe-labelled cysteine peptide fold change", "setting": "10 µM", "value": -0.0168}, {"measurement": "probe-labelled cysteine peptide fold change", "setting": "50 µM", "value": 0.136}]}
{"target": "GMPS_P49915_456_VICAEEPYICK (UniProt P49915)", "values": [{"measurement": "probe-labelled cysteine peptide fold change", "setting": "10 µM", "value": 0.0291}, {"measurement": "probe-labelled cysteine peptide fold change", "setting": "50 µM", "value": 0.0222}]}
{"target": "GK_P32189_220_QLCEFFGIPMEILPNVR (UniProt P32189)", "values": [{"measurement": "probe-labelled cysteine peptide fold change", "setting": "10 µM", "value": 0.359}, {"measurement": "probe-labelled cysteine peptide fold change", "setting": "50 µM", "value": -0.0142}]}
{"target": "GNPNAT1_Q96EK6_157_ITLECLPQNVGFYK (UniProt Q96EK6)", "values": [{"measurement": "probe-labelled cysteine peptide fold change", "setting": "10 µM", "value": -0.109}, {"measurement": "probe-labelled cysteine peptide fold change", "setting": "50 µM", "value": 0.0617}]}
{"target": "GMPR2_Q9P2T1_186_VGIGPGSVCTTR (UniProt Q9P2T1)", "values": [{"measurement": "probe-labelled cysteine peptide fold change", "setting": "10 µM", "value": -0.0269}, {"measurement": "probe-labelled cysteine peptide fold change", "setting": "50 µM", "value": -0.0815}]}
{"target": "GNB4_Q9HAV0_271_ADQELLLYSHDNIICGITSVAFSK (UniProt Q9HAV0)", "values": [{"measurement": "probe-labelled cysteine peptide fold change", "setting": "10 µM", "value": 0.0483}, {"measurement": "probe-labelled cysteine peptide fold change", "setting": "50 µM", "value": 0.11}]}
{"target": "GOSR2_O14653_18_QVHEIQSCMGR (UniProt O14653)", "values": [{"measurement": "probe-labelled cysteine peptide fold change", "setting": "10 µM", "value": -0.0255}, {"measurement": "probe-labelled cysteine peptide fold change", "setting": "50 µM", "value": -0.192}]}
{"target": "GLUD1_P00367_376_AKPYEGSILEADCDILIPAASEK (UniProt P00367)", "values": [{"measurement": "probe-labelled cysteine peptide fold change", "setting": "10 µM", "value": -0.0576}, {"measurement": "probe-labelled cysteine peptide fold change", "setting": "50 µM", "value": -0.0767}]}
{"target": "GOLGA2_Q08379_984_ERPGLGSNPCIPFFYR (UniProt Q08379)", "values": [{"measurement": "probe-labelled cysteine peptide fold change", "setting": "10 µM", "value": -0.062}, {"measurement": "probe-labelled cysteine peptide fold change", "setting": "50 µM", "value": -0.0279}]}
{"target": "GMPR2_Q9P2T1_348_VTQQVNPIFSEAC (UniProt Q9P2T1)", "values": [{"measurement": "probe-labelled cysteine peptide fold change", "setting": "10 µM", "value": -0.391}, {"measurement": "probe-labelled cysteine peptide fold change", "setting": "50 µM", "value": -0.155}]}
{"target": "GK_P32189_67_EILHSVYECIEK (UniProt P32189)", "values": [{"measurement": "probe-labelled cysteine peptide fold change", "setting": "10 µM", "value": 0.13}, {"measurement": "probe-labelled cysteine peptide fold change", "setting": "50 µM", "value": -0.0195}]}
{"target": "GNB2_P62879_148+149_ELPGHTGYLSCCR (UniProt P62879)", "values": [{"measurement": "probe-labelled cysteine peptide fold change", "setting": "10 µM", "value": 0.103}, {"measurement": "probe-labelled cysteine peptide fold change", "setting": "50 µM", "value": 0.141}]}
{"target": "GOLGA4_Q13439_1729_NVAAYTEQEEADSQGCVQK (UniProt Q13439)", "values": [{"measurement": "probe-labelled cysteine peptide fold change", "setting": "10 µM", "value": 0.235}, {"measurement": "probe-labelled cysteine peptide fold change", "setting": "50 µM", "value": 0.216}]}
{"target": "GNPNAT1_Q96EK6_157_ITLECLPQNVGFYKK (UniProt Q96EK6)", "values": [{"measurement": "probe-labelled cysteine peptide fold change", "setting": "10 µM", "value": -0.27}, {"measurement": "probe-labelled cysteine peptide fold change", "setting": "50 µM", "value": 0.0452}]}
